Data on 40 compounds can be found in PubChem BioAssay AID2685 (National Center for Advancing Translational Sciences (NCATS), 2010).

Structures are written as SMILES. The list shows a part of the results. Further columns of the screen follow, without active or inactive calls. The list favours compounds with an active or inconclusive main result. Potencies come from curve fits of mixed quality, noted in brackets.

This assay in a line: qHTS Assay for Lipid Storage Modulators in Drosophila S3 Cells.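 For cell number change: cells counted by Cell Tracker Red CMTPX staining in the red channel.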 Particulars: BODIPY lipid droplet fluorescence, 18-24 h; for cell number change: measured here: cell count max response, cells fed with added oleic acid. An outline of the steps:
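Drosophila S3 cells loaded with oleic acid (400 uM, as added) and compounds at several concentrations; lipid droplets imaged by 488-nm laser-scanning cytometry, 500–530 nm intensity and object ratio to cell channel. Percent activity normalized to 20 uM Triacsin C.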

The mark [1] stands for this setting: measured here: lipid fluorescence (Fed channel) AC50, cells fed with added oleic acid.
The mark [2] stands for this setting: measured here: cell number channel AC50, cells fed with added oleic acid.

As for `CCOc1ccccc1C(=O)N1CCN=C1SC`, the cell number change was 0.237%.

`COc1cc(S(=O)(=O)N2CCOCC2)ccc1NC(=O)CSc1nnc(N)s1`: the cell number change was determined as 2.65%. For the same compound, the AC50 under setting [1] was 8.2 µM [rising, partial curve, poor fit].

With `COc1ccc(OC)c(/C=C/C(=O)c2ccc3c(c2)OCCO3)c1`, the cell number change was -8.62%. Besides, under setting [1], the AC50 was 32.6 µM [falling, single point].

As for `O=[N+]([O-])c1ccc(OCCOc2ccccc2/C=N/n2cnnc2)cc1`, the cell number change is -0.368%.

Turning to `Cn1c(-c2sc3ccccc3c2Cl)n[nH]c1=S`, the cell number change amounted to 57.4%. For the same compound, the AC50 under setting [2] was 16.4 µM [rising, partial curve]. Also, the AC50 under setting [1] was 1.46 µM [rising, full curve, poor fit].

In the case of `CCc1nn2c(N3CCOCC3)cc(C)nc2c1-c1ccc(F)cc1`, the AC50 runs as follows: under setting [2], 0.58 µM [rising, full curve, poor fit]; under setting [1], 4.61 µM [rising, single point].

On to `Cc1cc(C)nc(NS(=O)(=O)c2ccc(NC(=O)CN3C(=O)C4CC=CCC4C3=O)cc2)n1` (stereo not drawn), for which the cell number change is 12.6%. Also, under setting [2], the half-maximal activity concentration (AC50) is 0.651 µM [falling, full curve].

Take `O=C(COc1ccc(Cl)cc1)NCCNC(=O)c1ccccn1`: the cell number change stood at 5.71%.

As for `O=C(/C=C\c1cccs1)N1CCN(Cc2ccc3c(c2)OCO3)CC1`, the cell number change was found to be 6.76%. Further, the AC50 under setting [2] was 0.00411 µM [rising, full curve, poor fit].

Take `O=C1/C(=C/Nc2ccc3c(c2)OCO3)CCc2ccccc21`: the cell number change amounted to 18%.

With `COc1ccc(-c2csc3ncnc(N4CCN(S(=O)(=O)c5ccccc5C#N)CC4)c23)cc1`, the AC50 under setting [1] is 5.17 µM [falling, partial curve].

Turning to `COc1ccc(CN(C)C(=O)c2cccc(Oc3ccccc3)c2)c(OC)c1OC`, the cell number change is -2.08%. Besides, the AC50 under setting [1] was 25.9 µM [rising, single point].

With `O=C(Nc1ccc2oc(-c3ccc(Cl)c(Cl)c3)nc2c1)c1ncn[nH]1`, the AC50 under setting [2] is 0.411 µM [rising, full curve].

Turning to `O=C(NCc1ccc2c(c1)OCO2)c1ccc2c(c1)C(=O)N(CC1CCCO1)C2=O` (stereo not drawn), the cell number change is -6.88%. Moreover, the AC50 under setting [1] was 0.651 µM [rising, single point].

In the case of `O=C(CSc1ccc2ccccc2c1)Nc1ccncc1`, the cell number change was -25.2%. Moreover, under setting [1], the AC50 was 29.1 µM [falling, single point].

As for `CCOC(=O)c1sc(NC(=O)c2cccnc2)nc1C`, the cell number change worked out at 46.2%. The AC50 under setting [2] was 7.31 µM [rising, partial curve, poor fit].

For `O=C(COC(=O)c1ccccc1Br)NCCC1=CCCCC1`, the cell number change was 42.6%. Also, the concentration at half-maximal activity (AC50) under setting [2] is 14.6 µM [rising, single point]. For the same compound, the AC50 under setting [1] was 0.146 µM [falling, full curve, poor fit].

Turning to `CCc1c(C2(O)CCCCC2)[nH]c2ncccc12`, the cell number change worked out at 7.24%. Further, the AC50 under setting [1] was 0.103 µM [falling, full curve, poor fit].

In the case of `O=C(CSc1ccc(Cl)cc1)Nc1cccc(-c2nc3ccccc3[nH]2)c1`, the cell number change was -42.9%. The AC50 under setting [2] was 5.8 µM [falling, partial curve]. Besides, the AC50 under setting [1] was 9.2 µM [falling, partial curve].

As to `CN1C(=S)SC(C)(NO)C1(C)C` (stereo not drawn), the AC50 under setting [1] is 29.1 µM [falling, single point].

With `CCOC(=O)c1nc(C)sc1-c1ccnn1S(=O)(=O)c1ccccc1C(F)(F)F`, the cell number change turned out to be 19.3%. Under setting [1], the AC50 was 2.06 µM [rising, full curve, poor fit].

`O=C(Nc1cc(Cl)cc(Cl)c1)C1CCC(=O)N1Cc1ccccc1Cl` (stereo not drawn): the cell number change was -137%. Besides, the AC50 under setting [2] was 18.4 µM [falling, partial curve]. For the same compound, the concentration at half-maximal activity (AC50) under setting [1] is 29.1 µM [falling, single point].

As for `COc1ccccc1OCC(=O)NCC(C)NC(=O)COc1ccccc1OC` (stereo not drawn), the cell number change came out at 22.8%. For the same compound, the AC50 under setting [2] is 1.03 µM [rising, full curve, poor fit].

Regarding `S=C(NCC1CCCCC1)Nc1ccc(Oc2ccccc2)cc1`, the cell number change was found to be 8.19%. The AC50 under setting [1] was 29.1 µM [falling, single point].

Take `Cc1ncc(CO)c2c1Oc1nc(-c3ccccc3)nc(SCC(=O)Nc3cccc(O)c3)c1C2`: the cell number change came to 88.7%. In addition, under setting [1], the AC50 was 6.51 µM [falling, full curve].

As to `CCOc1c(Cl)cc(CNCC(C)C)cc1OC`, the cell number change was -108%. For the same compound, the AC50 under setting [2] is 5.8 µM [falling, full curve]. For the same compound, the AC50 under setting [1] was 23.1 µM [falling, single point].

For `CCOc1ccc(N/C(=C(/C(Cl)=C(Cl)Cl)[N+](=O)[O-])n2cncn2)cc1`, the cell number change is 127%. For the same compound, the AC50 under setting [2] is 29.1 µM [rising, single point].

Consider `CCN(CC)S(=O)(=O)c1ccc(S(=O)(=O)Nc2ccc3c(c2)oc2ccccc23)cc1`, for which the cell number change stood at 8.2%. Moreover, the AC50 under setting [1] is 20.6 µM [rising, single point].

On to `N#Cc1ccccc1NC(=O)CSc1nnc(-c2ccccc2)n1-c1ccccc1`, for which the cell number change was determined as 51.4%. Under setting [2], the AC50 is 0.0651 µM [rising, full curve, poor fit]. Besides, the AC50 under setting [1] was 29.1 µM [rising, partial curve, poor fit].

In the case of `Cc1ccc(/C=N/NC(=O)c2cccs2)s1`, the cell number change is -14.2%. Under setting [1], the half-maximal activity concentration (AC50) was 2.91 µM [rising, partial curve].

Consider `Cc1cc(F)ccc1S(=O)(=O)N1CCCOC1CNC(=O)C(=O)NCc1ccncc1` (stereo not drawn), for which the cell number change came to 3.47%.

Turning to `c1ccc(CNC23CC4CC(CC(C4)C2)C3)nc1`, the cell number change is -32.6%.

With `O=[N+]([O-])c1ccc2[nH]cc(S(=O)(=O)N3CCN(c4cccc(Cl)c4)CC3)c2c1`, the cell number change came to 26%. The concentration at half-maximal activity (AC50) under setting [1] is 32.6 µM [falling, single point].

Regarding `Cc1nn(C)c(Oc2ccccc2)c1CCNS(=O)(=O)c1ccccc1`, the cell number change was 39.1%. Under setting [2], the AC50 was 16.4 µM [rising, single point].

With `C(=N\N1CCN(Cc2cccc3ccccc23)CC1)/c1ccco1`, the cell number change was -0.7%.

As to `C/C(=N\NC(=O)c1cc(C2CC2)nc2ccccc12)c1ccc(O)cc1O`, the cell number change stood at 8.33%.

`COc1ccc(Cl)cc1NC(=O)C1CC(c2c(F)cccc2Cl)=NO1` (stereo not drawn): the cell number change is -3.16%. The AC50 under setting [1] was 29.1 µM [falling, single point].

On to `O=C(CSC1=NS(=O)(=O)c2cc(F)ccc2N1)Nc1ccc(F)cc1`, for which the cell number change is -14.5%.

Take `CCN(CC)CCN1C(=O)C(=O)/C(=C(/O)c2c(C)[nH]c(C(=O)OC)c2C)C1c1ccc(OC)cc1` (stereo not drawn): the cell number change was found to be 4.1%.

As for `CC(NS(=O)(=O)OCC(Cl)(Cl)Cl)c1ccc(C(C)(C)C)cc1` (stereo not drawn), the cell number change was -40.8%. In addition, the half-maximal activity concentration (AC50) under setting [2] is 16.4 µM [falling, single point].

A word on the AC50: it is the concentration giving half of the maximal activity seen.
